The whole screen tested about 52,000 sequences, of which about 210 (0.4%) were called active.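 Rule for the calls: active = gene whose silencing raises cell survival under the drug, median off-target-corrected z-score across its silencing RNAs 2 or more; inactive = the rest.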 Some of the results follow.
Test: Resistance to Poly (ADP-Ribose) Polymerase inhibitor: Gene Identification via Genome-wide siRNA Screen
Conditions: mouse BRCA2 R2336H ES cells, olaparib, CellTiter-Glo viability; stronger effect = higher value
How it was run: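 Mouse BRCA2 R2336H ES cells were reverse-transfected with siRNA (20 nM final), treated at 48 h with 500 nM olaparib, and read by CellTiter-Glo after 72 h. Scores: MAD-based z per siRNA, median per gene, seed off-target correction.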
For GCUCUUUCUAUAAAAGGCCTT against Map3k9, the z-score was inactive: 1.27. With GGCGGAAGCCAUGAAGAAATT against Kcnmb4 the z-score was inactive: -1.95. With “CCUAAACCCUCAGUUCUCUTT against 4933406A14Rik” the z-score was inactive: -0.066. For GGAUGGUUACAUCAACUGCTT against Cabp1, the z-score was inactive: 0.303. With GGCUGCACAAAGAUGUUCATT against Yy1 the z-score was inactive: -0.236. In the case of GCACGCAGAAUUCUUCCGUTT against Gyltl1b, the z-score is reported as inactive: -0.445. With “GCGAACAUUUUUCAGGGUATT against 4921525L17Rik” the z-score was inactive: -0.784. For GCUCACCGGGAUCAUUCAATT against Prnpip1, the z-score was inactive: 0.899. For “CCUACUCCACGGGUAUUUUTT against 1700065D16Rik”, the z-score was inactive: 0.154. With GGCUGACUGGACAAUAAAGTT against Krt2-18 the z-score was inactive: -0.0858. In the case of GGUAAAAUACUACCUGAGATT against Abca15, the z-score is reported as inactive: -0.386. In the case of GGAGUUCACAUUCUUUCUGTT against Cbx7, the z-score is reported as inactive: -0.345. In the case of GGGUCCUGGUUUUACAUUCTT against Itpr1, the z-score is reported as inactive: 0.536. With GGAAACAUGUCCUCACACATT against Top3b the z-score was inactive: 0.337. For GGGCAAUGUGUUUAUGUAUTT against D9Wsu20e, the z-score was inactive: 0.0496. For CCCUACUUUGUACAUAGAUTT against Gbx2, the z-score was inactive: 1.64. In the case of GGAAAACAAUUUCAGGCAATT against Zdhhc3, the z-score is reported as inactive: -0.106. For GCUCGUUCUUCGACAUCUUTT against Stard3, the z-score was inactive: 1.65. In the case of GGAGUUUGACCACUACGUATT against P2ry4, the z-score is reported as inactive: 2.38. With CCUUGUCGCACAAAGAAUATT against Tm9sf1 the z-score was inactive: 0.895. With GCUGUUGAAACGACACUCGTT against Aarsl the z-score was inactive: 0.192. With GGAUUAAAGCAGAAUAUGATT against Paics the z-score was inactive: -0.246. With CCUCCGGAGUAUAAACAAUTT against Nr1i3 the z-score was inactive: 0.749. With GGUGGAGAGAAAGAGAAAATT against Mcm8 the z-score was inactive: -0.888. With “GGGAGCAUCACCUCUAUCUTT against 4921526K24Rik” the z-score was inactive: -0.998. With GGACUUCUUCACCAUCUGGTT against Lcat the z-score was inactive: -0.145. For “GGUGAAUAAAGACCGAGGUTT against 2210417J20Rik”, the z-score was inactive: -0.992. For GUCCAUCAGCAGCUCAAUGTT against Ifna5, the z-score was inactive: -0.126. In the case of CCAUAGUGGAAUCAAGGCUTT against Olfr1079, the z-score is reported as inactive: 0.494. With GGAAUGUGAAGAGGGCUUUTT against Olfr1341 the z-score was inactive: -0.671. In the case of CCAUGAGCGGAUAAGACUCTT against Zfyve1, the z-score is reported as inactive: 0.461. With GGAGAUUCGGACAAAGUGATT against Rhcg the z-score was inactive: 0.442. For GGAAUUCAGGAGUCUCUUUTT against Elavl4, the z-score was inactive: 0.953. For GCCAGGAAUGCUAUUCUCGTT against Lrg1, the z-score was inactive: -0.223. With CGGAUAGUGAAAUCGCUCUTT against Copz1 the z-score was inactive: 0.97. For GCCAAACAUUGGUGGACAUTT against H2-D1, the z-score was inactive: 1.59. In the case of “GCCUGGUUAUUAAUUUAUCTT against 2810039F03Rik”, the z-score is reported as inactive: 0.689. In the case of GGAGAGUUGAUGUUUGAUGTT against Paxip1, the z-score is reported as inactive: -0.886. For GGGAAGCCUUUUUUAUCGGTT against V1rb5, the z-score was inactive: -1.58. In the case of UUCUGUCCAUCGUGAUCAATT against Sctr, the z-score is reported as inactive: -1.49. For GCGACAACGAUUUUGAAAUTT against Rsu1, the z-score was inactive: 0.756. For “CCUCUGUCAGUUGGUUAACTT against 2610528O22Rik”, the z-score was inactive: -0.279. For GGAUUUGGAGUAGAUCAAUTT against Tial1, the z-score was inactive: -2.61. With “GCCAGUGCUGGUUUGAAAUTT against 1700024K14Rik” the z-score was inactive: 0.563. In the case of GCUUCAUCCUAGCGGUUUGTT against Dad1, the z-score is reported as inactive: -1.3. With CCAUUCCCAAUUGGUGUGATT against Olfr435 the z-score was inactive: -0.564. For GGGUAAUAGACCAUUUCUUTT against Olfr124, the z-score was inactive: -0.115. With GGAGCUGGAGUACGACUACTT against Tmem30b the z-score was inactive: -0.403. With “GGGCAUUCAGCAGUUACAGTT against 4930558O21Rik” the z-score was inactive: -0.165. In the case of GGAAGGCAUAUGUUUGUGUTT against Asf1a, the z-score is reported as inactive: 0.293. With CUUUUGGUAUUGCAGAAUGTT against Olfr972 the z-score was inactive: -0.931. For GGAAGAACAAAAAUGCAAGTT against Icsbp1, the z-score was inactive: 0.532. In the case of “GGACUAAUUGGCCUCUGCUTT against 3110001N18Rik”, the z-score is reported as inactive: -0.196. For GCCAUUAACUAUGGGACCUTT against Lck, the z-score was inactive: -0.11. In the case of GGAGUAGUGUUGGAUAUAUTT against Mpv17l, the z-score is reported as inactive: 0.041. For “CGAUCAACUAUGCCAUUGGTT against 2310051D06Rik”, the z-score was inactive: -0.838. With CCGCUCCGAACCAAGAAGATT against Tulp1 the z-score was inactive: 0.372. In the case of GGAGAGUAUCAGCAAUGAATT against Impg2, the z-score is reported as inactive: -2.13. For “GGCCAACAGGACAGAGAUGTT against D830013H12”, the z-score was inactive: 0.338. For GGAAUCCUUACAUCGCCCATT against Olfr669, the z-score was inactive: 0.25. With GGCAGACAACUUCUACCAATT against Crim1 the z-score was inactive: 0.715. For “GGCUGACCCUAGAAAGACATT against D430025H09Rik”, the z-score was inactive: -2.44. For “GGAUGGAGCUACUGAAAUUTT against 2500002K03Rik”, the z-score was inactive: -2.6. With GGCUACCAAGGCAGUUUCCTT against Glis1 the z-score was inactive: 1.37. With GGCGAAAGUAAGACAAAGUTT against AI114950 the z-score was inactive: -1.59. With GCUGGUCAGAGAUUUUGAUTT against Vti1b the z-score was inactive: 0.162.

Reference: PubChem BioAssay AID1347423 (Functional Genomics Laboratory (NCATS/FGL), 2020)
